PubChem BioAssay AID1259405 | NCATS | 2018
Here is a random part of about 50,000 reagents tested. Of all reagents, about 4,000 (8%) are marked active. 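Mouse siRNA library applied to hamster cells; one well for each siRNA.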 The numbers tell different reagents against one gene apart.

Screen: 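Silenced genes that increase secreted GFP made by CHO cells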 (primary screen)
Cells: Chinese hamster CHO-K1 ovary cells with stable secreted eGFP expression
Reagent: single siRNA against mouse genes, 0.8 pmol siRNA per well (2 µl of 400 nM stock)
Timing: 3 days
Read-out: 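Percent of the per-plate non-targeting control median for intracellular GFP per well by laser scanning cytometry and for cell viability by ATP luminescence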
Scale: GFP, % of control: higher = more GFP per well, higher productivity; viability (ATP), % of control: higher = more viable cells (more ATP)
Active means: 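a knock-down is called active if GFP reaches 120% or more of non-targeting control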

{"Gene": "Clec4e (GeneID 56619)", "reagent no.": 1, "GFP, % of control": 58, "viability (ATP), % of control": 42.3, "call": "inactive"}
{"Gene": "Clec4e (GeneID 56619)", "reagent no.": 2, "GFP, % of control": 61.2, "viability (ATP), % of control": 82.1, "call": "inactive"}
{"Gene": "Clec4e (GeneID 56619)", "reagent no.": 3, "GFP, % of control": 65.1, "viability (ATP), % of control": 51.5, "call": "inactive"}
{"Gene": "Auh (GeneID 11992)", "reagent no.": 1, "GFP, % of control": 61.5, "viability (ATP), % of control": 79.5, "call": "inactive"}
{"Gene": "Auh (GeneID 11992)", "reagent no.": 2, "GFP, % of control": 67.4, "viability (ATP), % of control": 49, "call": "inactive"}
{"Gene": "Auh (GeneID 11992)", "reagent no.": 3, "GFP, % of control": 85.9, "viability (ATP), % of control": 98.9, "call": "inactive"}
{"Gene": "Tssk3 (GeneID 58864)", "reagent no.": 1, "GFP, % of control": 88, "viability (ATP), % of control": 59.8, "call": "inactive"}
{"Gene": "Fadd (GeneID 14082)", "reagent no.": 1, "GFP, % of control": 83.3, "viability (ATP), % of control": 85.1, "call": "inactive"}
{"Gene": "Fadd (GeneID 14082)", "reagent no.": 2, "GFP, % of control": 55.3, "viability (ATP), % of control": 67.6, "call": "inactive"}
{"Gene": "Fadd (GeneID 14082)", "reagent no.": 3, "GFP, % of control": 46.4, "viability (ATP), % of control": 22.4, "call": "inactive"}
{"Gene": "Tyw5 (GeneID 68736)", "reagent no.": 1, "GFP, % of control": 71.3, "viability (ATP), % of control": 75.7, "call": "inactive"}
{"Gene": "Tyw5 (GeneID 68736)", "reagent no.": 2, "GFP, % of control": 62, "viability (ATP), % of control": 64.1, "call": "inactive"}
{"Gene": "Tyw5 (GeneID 68736)", "reagent no.": 3, "GFP, % of control": 54.3, "viability (ATP), % of control": 69.3, "call": "inactive"}
{"Gene": "Lrrc3 (GeneID 237387)", "reagent no.": 1, "GFP, % of control": 122, "viability (ATP), % of control": 88.3, "call": "active"}
{"Gene": "Lrrc3 (GeneID 237387)", "reagent no.": 2, "GFP, % of control": 79.8, "viability (ATP), % of control": 83.5, "call": "inactive"}
{"Gene": "Lrrc3 (GeneID 237387)", "reagent no.": 3, "GFP, % of control": 68.7, "viability (ATP), % of control": 64.9, "call": "inactive"}
{"Gene": "Cpsf2 (GeneID 51786)", "reagent no.": 1, "GFP, % of control": 177, "viability (ATP), % of control": 91.9, "call": "active"}
{"Gene": "Cpsf2 (GeneID 51786)", "reagent no.": 2, "GFP, % of control": 178, "viability (ATP), % of control": 125, "call": "active"}
{"Gene": "Cpsf2 (GeneID 51786)", "reagent no.": 3, "GFP, % of control": 68.8, "viability (ATP), % of control": 42.6, "call": "inactive"}
{"Gene": "Cpsf2 (GeneID 51786)", "reagent no.": 4, "GFP, % of control": 82.4, "viability (ATP), % of control": 83.3, "call": "inactive"}
{"Gene": "Cpsf2 (GeneID 51786)", "reagent no.": 5, "GFP, % of control": 96.2, "viability (ATP), % of control": 89.3, "call": "inactive"}
{"Gene": "Cpsf2 (GeneID 51786)", "reagent no.": 6, "GFP, % of control": 86.9, "viability (ATP), % of control": 73.4, "call": "inactive"}
{"Gene": "Rhox9 (GeneID 104384)", "reagent no.": 1, "GFP, % of control": 113, "viability (ATP), % of control": 129, "call": "inactive"}
{"Gene": "Rhox9 (GeneID 104384)", "reagent no.": 2, "GFP, % of control": 74.2, "viability (ATP), % of control": 69.1, "call": "inactive"}
{"Gene": "Rhox9 (GeneID 104384)", "reagent no.": 3, "GFP, % of control": 67.5, "viability (ATP), % of control": 58.2, "call": "inactive"}

The list goes on (6 carried over from the part before).
{"Gene": "Cpsf2 (GeneID 51786)", "reagent no.": 4, "GFP, % of control": 82.4, "viability (ATP), % of control": 83.3, "call": "inactive"}
{"Gene": "Cpsf2 (GeneID 51786)", "reagent no.": 5, "GFP, % of control": 96.2, "viability (ATP), % of control": 89.3, "call": "inactive"}
{"Gene": "Cpsf2 (GeneID 51786)", "reagent no.": 6, "GFP, % of control": 86.9, "viability (ATP), % of control": 73.4, "call": "inactive"}
{"Gene": "Rhox9 (GeneID 104384)", "reagent no.": 1, "GFP, % of control": 113, "viability (ATP), % of control": 129, "call": "inactive"}
{"Gene": "Rhox9 (GeneID 104384)", "reagent no.": 2, "GFP, % of control": 74.2, "viability (ATP), % of control": 69.1, "call": "inactive"}
{"Gene": "Rhox9 (GeneID 104384)", "reagent no.": 3, "GFP, % of control": 67.5, "viability (ATP), % of control": 58.2, "call": "inactive"}
{"Gene": "Sytl5 (GeneID 236643)", "reagent no.": 1, "GFP, % of control": 93.1, "viability (ATP), % of control": 129, "call": "inactive"}
{"Gene": "Sytl5 (GeneID 236643)", "reagent no.": 2, "GFP, % of control": 84.5, "viability (ATP), % of control": 73.4, "call": "inactive"}
{"Gene": "Usf3 (GeneID 207806)", "reagent no.": 1, "GFP, % of control": 91.5, "viability (ATP), % of control": 97.6, "call": "inactive"}
{"Gene": "Usf3 (GeneID 207806)", "reagent no.": 2, "GFP, % of control": 64.6, "viability (ATP), % of control": 65.1, "call": "inactive"}
{"Gene": "Usf3 (GeneID 207806)", "reagent no.": 3, "GFP, % of control": 70.8, "viability (ATP), % of control": 56.3, "call": "inactive"}
{"Gene": "Pop5 (GeneID 117109)", "reagent no.": 1, "GFP, % of control": 53.5, "viability (ATP), % of control": 42.9, "call": "inactive"}
{"Gene": "Pop5 (GeneID 117109)", "reagent no.": 2, "GFP, % of control": 106, "viability (ATP), % of control": 65.6, "call": "inactive"}
{"Gene": "Pop5 (GeneID 117109)", "reagent no.": 3, "GFP, % of control": 63.4, "viability (ATP), % of control": 52.1, "call": "inactive"}
{"Gene": "Twist1 (GeneID 22160)", "reagent no.": 1, "GFP, % of control": 84.4, "viability (ATP), % of control": 136, "call": "inactive"}
{"Gene": "Twist1 (GeneID 22160)", "reagent no.": 2, "GFP, % of control": 70.6, "viability (ATP), % of control": 83.6, "call": "inactive"}
{"Gene": "Twist1 (GeneID 22160)", "reagent no.": 3, "GFP, % of control": 76.6, "viability (ATP), % of control": 93.7, "call": "inactive"}
{"Gene": "Cntnap2 (GeneID 66797)", "reagent no.": 1, "GFP, % of control": 81.9, "viability (ATP), % of control": 85.1, "call": "inactive"}
{"Gene": "Cntnap2 (GeneID 66797)", "reagent no.": 2, "GFP, % of control": 25.3, "viability (ATP), % of control": 45.6, "call": "inactive"}
{"Gene": "Cntnap2 (GeneID 66797)", "reagent no.": 3, "GFP, % of control": 64.8, "viability (ATP), % of control": 53.1, "call": "inactive"}
{"Gene": "Lonp1 (GeneID 74142)", "reagent no.": 1, "GFP, % of control": 53.3, "viability (ATP), % of control": 71.2, "call": "inactive"}
{"Gene": "Lonp1 (GeneID 74142)", "reagent no.": 2, "GFP, % of control": 74.2, "viability (ATP), % of control": 78, "call": "inactive"}
{"Gene": "Lonp1 (GeneID 74142)", "reagent no.": 3, "GFP, % of control": 69.9, "viability (ATP), % of control": 68.1, "call": "inactive"}
{"Gene": "Zfp239 (GeneID 22685)", "reagent no.": 1, "GFP, % of control": 66.7, "viability (ATP), % of control": 96.5, "call": "inactive"}
{"Gene": "Zfp239 (GeneID 22685)", "reagent no.": 2, "GFP, % of control": 80.8, "viability (ATP), % of control": 98.5, "call": "inactive"}
{"Gene": "Zfp239 (GeneID 22685)", "reagent no.": 3, "GFP, % of control": 83.6, "viability (ATP), % of control": 98.9, "call": "inactive"}
{"Gene": "Zfp710 (GeneID 209225)", "reagent no.": 1, "GFP, % of control": 69.3, "viability (ATP), % of control": 69.5, "call": "inactive"}
{"Gene": "Zfp710 (GeneID 209225)", "reagent no.": 2, "GFP, % of control": 128, "viability (ATP), % of control": 101, "call": "active"}
{"Gene": "Naip5 (GeneID 17951)", "reagent no.": 1, "GFP, % of control": 81.5, "viability (ATP), % of control": 49.4, "call": "inactive"}
{"Gene": "Naip5 (GeneID 17951)", "reagent no.": 2, "GFP, % of control": 72.6, "viability (ATP), % of control": 88.9, "call": "inactive"}
{"Gene": "Naip5 (GeneID 17951)", "reagent no.": 3, "GFP, % of control": 87.6, "viability (ATP), % of control": 87.8, "call": "inactive"}
{"Gene": "Tmem167 (GeneID 66074)", "reagent no.": 1, "GFP, % of control": 114, "viability (ATP), % of control": 96.4, "call": "inactive"}
{"Gene": "Tmem167 (GeneID 66074)", "reagent no.": 2, "GFP, % of control": 81.1, "viability (ATP), % of control": 70.2, "call": "inactive"}
{"Gene": "Tmem167 (GeneID 66074)", "reagent no.": 3, "GFP, % of control": 79.5, "viability (ATP), % of control": 39.5, "call": "inactive"}
